Data from publication PMC6533289.

The chains behind the UniProt entries cited, without tags or fusion partners.
UniProt O94763: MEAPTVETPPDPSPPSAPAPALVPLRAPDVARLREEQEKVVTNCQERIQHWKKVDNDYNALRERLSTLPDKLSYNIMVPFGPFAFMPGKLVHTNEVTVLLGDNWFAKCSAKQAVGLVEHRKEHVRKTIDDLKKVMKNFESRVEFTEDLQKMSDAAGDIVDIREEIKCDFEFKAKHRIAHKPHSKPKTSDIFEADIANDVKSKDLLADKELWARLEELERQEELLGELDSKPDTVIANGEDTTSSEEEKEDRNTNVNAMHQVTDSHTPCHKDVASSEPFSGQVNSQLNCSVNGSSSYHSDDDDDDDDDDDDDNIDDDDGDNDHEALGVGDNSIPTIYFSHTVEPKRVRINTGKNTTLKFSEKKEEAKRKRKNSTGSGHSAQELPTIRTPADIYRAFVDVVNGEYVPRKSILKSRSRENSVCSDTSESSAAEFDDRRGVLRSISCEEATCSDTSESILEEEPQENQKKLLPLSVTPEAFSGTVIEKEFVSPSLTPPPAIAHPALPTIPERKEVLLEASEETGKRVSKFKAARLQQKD
UniProt Q9NUG6: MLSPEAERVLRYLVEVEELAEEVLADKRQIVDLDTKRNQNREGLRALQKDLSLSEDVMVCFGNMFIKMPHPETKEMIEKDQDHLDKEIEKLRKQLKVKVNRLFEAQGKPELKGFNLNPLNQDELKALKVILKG
UniProt Q9UHV9: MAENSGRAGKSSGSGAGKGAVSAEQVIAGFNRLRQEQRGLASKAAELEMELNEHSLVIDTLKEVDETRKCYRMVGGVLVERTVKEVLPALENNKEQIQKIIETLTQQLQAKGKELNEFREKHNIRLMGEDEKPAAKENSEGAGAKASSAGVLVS
UniProt O15212: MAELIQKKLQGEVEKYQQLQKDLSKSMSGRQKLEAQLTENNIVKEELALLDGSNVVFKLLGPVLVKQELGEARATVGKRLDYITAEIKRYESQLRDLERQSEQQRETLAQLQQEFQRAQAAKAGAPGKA
UniProt P36873: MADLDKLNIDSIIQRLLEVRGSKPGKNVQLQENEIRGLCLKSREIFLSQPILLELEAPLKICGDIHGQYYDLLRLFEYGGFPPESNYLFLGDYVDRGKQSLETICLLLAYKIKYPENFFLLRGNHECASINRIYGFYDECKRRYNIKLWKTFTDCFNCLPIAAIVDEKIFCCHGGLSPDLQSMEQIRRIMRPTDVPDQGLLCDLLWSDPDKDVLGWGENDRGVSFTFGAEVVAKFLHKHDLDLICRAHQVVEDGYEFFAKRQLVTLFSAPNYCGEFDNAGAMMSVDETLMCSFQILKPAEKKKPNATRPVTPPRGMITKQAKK
UniProt Q9Y265: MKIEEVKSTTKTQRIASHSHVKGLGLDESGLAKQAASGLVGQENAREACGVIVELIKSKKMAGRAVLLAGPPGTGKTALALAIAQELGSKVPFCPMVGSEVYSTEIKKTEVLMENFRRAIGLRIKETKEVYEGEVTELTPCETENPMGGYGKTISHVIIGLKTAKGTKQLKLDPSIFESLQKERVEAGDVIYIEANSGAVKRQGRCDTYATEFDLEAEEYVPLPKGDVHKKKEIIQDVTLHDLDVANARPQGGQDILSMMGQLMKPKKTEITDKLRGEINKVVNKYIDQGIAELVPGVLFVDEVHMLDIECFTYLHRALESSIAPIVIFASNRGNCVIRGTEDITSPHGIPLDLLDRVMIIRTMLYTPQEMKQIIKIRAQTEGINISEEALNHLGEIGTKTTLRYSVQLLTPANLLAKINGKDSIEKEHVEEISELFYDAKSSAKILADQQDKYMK
UniProt Q96MX6: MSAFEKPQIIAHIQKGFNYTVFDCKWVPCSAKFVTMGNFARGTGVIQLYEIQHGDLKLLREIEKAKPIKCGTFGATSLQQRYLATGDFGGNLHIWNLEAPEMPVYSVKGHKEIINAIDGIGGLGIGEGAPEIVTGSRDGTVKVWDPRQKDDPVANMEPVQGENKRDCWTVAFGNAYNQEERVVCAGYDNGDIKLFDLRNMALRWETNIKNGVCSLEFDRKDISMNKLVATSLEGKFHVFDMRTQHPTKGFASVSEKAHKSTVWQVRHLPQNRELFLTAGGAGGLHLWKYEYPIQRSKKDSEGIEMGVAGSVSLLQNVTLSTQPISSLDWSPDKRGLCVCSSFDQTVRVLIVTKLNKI

What was measured:
[1] = molecular target: unconventional prefoldin RPB5 interactor (URI1) (human (endogenous in A375-P, A2058, SK-MEL-28, UACC-62)) (UniProt O94763); experiment: affinity purification with mass spectrometry; endogenous URI1 immunoprecipitated (URI1 antibody coupled to Protein G Agarose, 5 mg lysate, TNN buffer, 4 h, IgG control) from A375-P cells treated 16 h with 1 μM PLX4720 or DMSO; glycine elution, trypsin digest, LC-MS/MS
[2] = molecular target: unconventional prefoldin RPB5 interactor (URI1) (human (endogenous in A375-P, A2058, SK-MEL-28, UACC-62)) (UniProt O94763); experiment: condition: only DMSO control cells, without PLX4720; affinity purification with mass spectrometry; as a1, DMSO control cells only (BRAF V600E signalling not inhibited)

| Substance | binding [1] | binding [2] |
| --- | --- | --- |
| PDRG1 (from UniProt Q9NUG6 1-133) | binds |  |
| PFD2 (from UniProt Q9UHV9 1-154) | binds |  |
| PFD6 (from UniProt O15212 1-129) | binds |  |
| PP1γ (protein phosphatase 1, catalytic subunit, gamma isoform) (from UniProt P36873 1-323) | binds | no binding |
| RUVBL1 (from UniProt Q9Y265 1-456) | binds |  |
| WDR92 (from UniProt Q96MX6 1-357) | binds |  |

Results are given in words; binding and its absence hold for the method and conditions named. Binding seen in cells or lysates may run through a third protein. A yes stands for co-enrichment or nearness to the bait. Other partners may have been found. For some of these results: A no says only that the protein was not detected with the bait.
